# No constants are given. Whether binding was seen depends on the method and setting. A result given as binding can be weak or reduced; the word gives no strength. Where a sequence is shown, tags or fusion partners need not be part of it.
# Tests used:
# [1] = target: RhopH3, yeast two-hybrid prey; experiment: yeast two-hybrid and immunoprecipitation screens
# [2] = target: RAP-1, yeast two-hybrid prey; experiment: yeast two-hybrid and immunoprecipitation screens
binder,measurement,setting,value
"PfSEP-1A yeast two-hybrid bait (rPfSEP-1A region, aa 810-1083, as fusion with truncated transcription factor) (protein) NEDRGIYDELLENDMCDLYNLKMHDLHNLKSYDFGLSKDLLKKDIFIYSNNLKNDDMDDDDNNNMNDIAIGENVIYENDIHENNIDDNDMYNNYVNGNDLYINNMQDDAMDDIVYDEEEIKSFLDKLKSDISNQMNVKNGNVEVTGNGGNEEMSYINNDENLQAFDLLDNFHMDDYGNNYNDNEEDGDGDGDDDEQKKRKQKELHNVNGKLNLSDLNELNVDDINNNFYMSTPRKSIDERKDTECQTDFPLLDVSRNTNRTPRRKSVEVILVE",binding,[1],binds
same,binding,[2],binds

# Reference: US20210283233A1
